Laboratory results taken from publication PMC12137850.
Results are given in words; binding and its absence hold for the method and conditions named. Binding seen in cells or lysates may run through a third protein. Some entries that bind do so weakly or less than the wild type. Where a sequence is shown, tags or fusion partners need not be part of it.

The chains behind the UniProt entries cited, without tags or fusion partners. Residues count along the entry.
UniProt P05107, residues 23-769: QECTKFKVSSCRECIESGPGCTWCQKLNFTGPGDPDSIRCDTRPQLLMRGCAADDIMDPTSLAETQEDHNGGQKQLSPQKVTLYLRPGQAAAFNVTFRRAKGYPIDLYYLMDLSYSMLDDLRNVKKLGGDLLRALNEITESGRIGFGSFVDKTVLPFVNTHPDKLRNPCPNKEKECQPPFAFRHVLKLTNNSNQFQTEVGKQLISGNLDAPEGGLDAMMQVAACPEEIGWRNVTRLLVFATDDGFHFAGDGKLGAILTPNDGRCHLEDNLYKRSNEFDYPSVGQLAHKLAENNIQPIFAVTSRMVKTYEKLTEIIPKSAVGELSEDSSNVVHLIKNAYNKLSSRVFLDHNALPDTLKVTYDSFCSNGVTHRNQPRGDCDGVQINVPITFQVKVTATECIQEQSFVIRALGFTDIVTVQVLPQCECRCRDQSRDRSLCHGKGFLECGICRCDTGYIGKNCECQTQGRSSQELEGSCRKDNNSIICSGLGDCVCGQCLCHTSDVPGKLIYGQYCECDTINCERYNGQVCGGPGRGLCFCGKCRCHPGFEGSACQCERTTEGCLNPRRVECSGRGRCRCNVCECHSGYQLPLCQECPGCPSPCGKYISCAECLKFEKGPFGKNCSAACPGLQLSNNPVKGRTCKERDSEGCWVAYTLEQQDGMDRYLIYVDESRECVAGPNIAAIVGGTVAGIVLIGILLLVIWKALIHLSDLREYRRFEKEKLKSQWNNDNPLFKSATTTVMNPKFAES

Experiments:
GFP-tagged CD151 (human) [1] = molecular target: T1, GFP-tagged CD151 (human) (UniProt P48509); assay: co-IP; GFP-Trap magnetic agarose on lysates of BJAB CD151-GFP cells (BJAB WT as control); 1% IGEPAL, 25 mM Tris-HCl pH 7.5, 150 mM NaCl, 5 mM MgCl2, 2 h at 4°C; blot for endogenous ITGB2; also with lysis buffer supplemented with Ca2+/Mg2+, Mg2+ or EDTA
T1 sequence: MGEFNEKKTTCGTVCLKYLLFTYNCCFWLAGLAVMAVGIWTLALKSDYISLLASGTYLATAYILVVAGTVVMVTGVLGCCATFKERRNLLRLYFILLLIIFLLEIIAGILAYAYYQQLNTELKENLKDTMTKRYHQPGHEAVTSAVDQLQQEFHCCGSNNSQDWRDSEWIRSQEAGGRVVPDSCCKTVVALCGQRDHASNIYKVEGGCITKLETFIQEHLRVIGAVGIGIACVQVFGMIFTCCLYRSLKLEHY

GFP-tagged CD151 (human) [2] = molecular target: T1, GFP-tagged CD151 (human); assay: co-IP; BJAB cells transiently transfected with CD151-GFP and ALFA-tagged ITGB2, lysed in 1% IGEPAL CA-630; IP by GFP or by the ALFA tag (selector ST beads); western blot for GFP-tag or ALFA-tag
ALFA-tagged ITGB2 = ALFA-tagged ITGB2 (UniProt P05107); assay: as above

## endogenous integrin beta 2 (ITGB2) (from UniProt P05107 23-769)
GFP-tagged CD151 (human) [1]
  binding: binds

## ALFA-tagged ITGB2 (from UniProt P05107 23-769)
GFP-tagged CD151 (human) [2]
  binding: binds

B1: GFP-tagged CD151 (protein, UniProt P48509 1-253)
chain: T1 sequence
ALFA-tagged ITGB2
  binding: binds
